From the supplement of paper PMC6411743
± gives the standard deviation of the averaged measurements. This is a selection; strong and weak results do not stand in their true shares.

The chains behind the UniProt entries cited, without tags or fusion partners. Where a name states a change or a piece, a line headed by the entry shows the natural chain unless it says otherwise.
UniProt O00592: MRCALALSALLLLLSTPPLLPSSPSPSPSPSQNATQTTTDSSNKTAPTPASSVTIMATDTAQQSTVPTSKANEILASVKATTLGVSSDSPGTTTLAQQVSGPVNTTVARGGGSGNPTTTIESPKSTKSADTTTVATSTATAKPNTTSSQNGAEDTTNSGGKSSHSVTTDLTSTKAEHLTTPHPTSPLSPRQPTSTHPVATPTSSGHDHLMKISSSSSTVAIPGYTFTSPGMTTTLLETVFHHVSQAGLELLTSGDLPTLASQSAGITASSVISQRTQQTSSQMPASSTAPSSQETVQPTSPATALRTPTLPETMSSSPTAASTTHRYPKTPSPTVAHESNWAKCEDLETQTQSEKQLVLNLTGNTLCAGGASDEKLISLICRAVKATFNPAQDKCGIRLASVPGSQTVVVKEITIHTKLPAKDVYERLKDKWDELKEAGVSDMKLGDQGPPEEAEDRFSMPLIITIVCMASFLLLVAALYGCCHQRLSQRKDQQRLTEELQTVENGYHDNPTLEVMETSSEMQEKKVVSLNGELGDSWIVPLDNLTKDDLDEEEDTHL
UniProt O43665: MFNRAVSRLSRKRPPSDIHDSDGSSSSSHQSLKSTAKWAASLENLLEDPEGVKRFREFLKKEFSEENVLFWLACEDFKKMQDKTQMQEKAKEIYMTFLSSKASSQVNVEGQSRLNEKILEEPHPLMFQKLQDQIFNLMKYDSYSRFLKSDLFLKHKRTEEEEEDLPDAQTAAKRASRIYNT
UniProt O00203: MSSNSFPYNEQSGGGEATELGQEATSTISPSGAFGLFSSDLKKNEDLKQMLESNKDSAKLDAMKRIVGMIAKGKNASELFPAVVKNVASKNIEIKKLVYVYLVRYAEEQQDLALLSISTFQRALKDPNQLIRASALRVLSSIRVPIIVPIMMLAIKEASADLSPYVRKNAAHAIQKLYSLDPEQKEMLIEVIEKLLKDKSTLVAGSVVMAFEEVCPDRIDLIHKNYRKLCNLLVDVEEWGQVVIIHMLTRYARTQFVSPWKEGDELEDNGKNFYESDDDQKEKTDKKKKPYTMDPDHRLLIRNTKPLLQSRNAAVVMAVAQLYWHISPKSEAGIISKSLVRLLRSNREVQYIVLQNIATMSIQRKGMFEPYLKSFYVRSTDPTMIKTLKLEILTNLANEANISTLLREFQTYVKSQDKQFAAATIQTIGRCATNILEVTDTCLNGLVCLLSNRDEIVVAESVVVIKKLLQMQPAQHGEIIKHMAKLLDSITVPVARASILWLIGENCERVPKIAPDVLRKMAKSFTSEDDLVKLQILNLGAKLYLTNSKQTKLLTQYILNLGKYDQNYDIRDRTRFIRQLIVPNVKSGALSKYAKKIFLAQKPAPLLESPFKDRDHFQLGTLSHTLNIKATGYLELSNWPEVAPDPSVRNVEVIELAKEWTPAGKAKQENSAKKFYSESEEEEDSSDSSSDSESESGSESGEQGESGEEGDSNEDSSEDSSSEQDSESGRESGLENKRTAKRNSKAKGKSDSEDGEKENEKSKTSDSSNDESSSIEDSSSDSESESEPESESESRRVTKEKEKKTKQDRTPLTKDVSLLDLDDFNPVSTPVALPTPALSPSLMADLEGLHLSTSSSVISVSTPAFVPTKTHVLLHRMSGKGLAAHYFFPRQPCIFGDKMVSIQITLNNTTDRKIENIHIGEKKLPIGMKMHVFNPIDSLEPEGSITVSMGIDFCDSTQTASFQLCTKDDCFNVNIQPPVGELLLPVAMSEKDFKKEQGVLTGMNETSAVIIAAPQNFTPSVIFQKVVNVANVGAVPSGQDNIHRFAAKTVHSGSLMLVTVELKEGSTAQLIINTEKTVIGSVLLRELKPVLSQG
UniProt O43292: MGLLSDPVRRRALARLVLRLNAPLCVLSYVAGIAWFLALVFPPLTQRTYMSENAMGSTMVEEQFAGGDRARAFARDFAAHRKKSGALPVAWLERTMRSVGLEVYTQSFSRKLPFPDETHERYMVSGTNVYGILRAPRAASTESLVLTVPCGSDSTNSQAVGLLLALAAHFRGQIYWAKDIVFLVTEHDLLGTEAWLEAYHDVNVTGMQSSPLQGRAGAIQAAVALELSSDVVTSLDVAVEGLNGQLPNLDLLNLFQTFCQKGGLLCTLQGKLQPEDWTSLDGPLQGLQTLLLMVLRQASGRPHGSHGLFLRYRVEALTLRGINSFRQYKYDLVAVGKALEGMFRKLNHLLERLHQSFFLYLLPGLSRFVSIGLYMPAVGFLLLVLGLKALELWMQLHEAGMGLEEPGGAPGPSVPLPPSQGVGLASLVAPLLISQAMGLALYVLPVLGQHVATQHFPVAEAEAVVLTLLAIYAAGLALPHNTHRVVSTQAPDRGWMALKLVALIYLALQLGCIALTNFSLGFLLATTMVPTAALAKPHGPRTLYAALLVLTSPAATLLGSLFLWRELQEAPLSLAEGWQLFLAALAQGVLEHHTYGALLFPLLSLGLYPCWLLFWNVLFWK
UniProt O15212, whole entry: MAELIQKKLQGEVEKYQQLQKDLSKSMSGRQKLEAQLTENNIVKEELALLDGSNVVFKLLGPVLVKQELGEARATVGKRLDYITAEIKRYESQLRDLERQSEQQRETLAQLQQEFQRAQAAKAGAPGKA
UniProt O60306: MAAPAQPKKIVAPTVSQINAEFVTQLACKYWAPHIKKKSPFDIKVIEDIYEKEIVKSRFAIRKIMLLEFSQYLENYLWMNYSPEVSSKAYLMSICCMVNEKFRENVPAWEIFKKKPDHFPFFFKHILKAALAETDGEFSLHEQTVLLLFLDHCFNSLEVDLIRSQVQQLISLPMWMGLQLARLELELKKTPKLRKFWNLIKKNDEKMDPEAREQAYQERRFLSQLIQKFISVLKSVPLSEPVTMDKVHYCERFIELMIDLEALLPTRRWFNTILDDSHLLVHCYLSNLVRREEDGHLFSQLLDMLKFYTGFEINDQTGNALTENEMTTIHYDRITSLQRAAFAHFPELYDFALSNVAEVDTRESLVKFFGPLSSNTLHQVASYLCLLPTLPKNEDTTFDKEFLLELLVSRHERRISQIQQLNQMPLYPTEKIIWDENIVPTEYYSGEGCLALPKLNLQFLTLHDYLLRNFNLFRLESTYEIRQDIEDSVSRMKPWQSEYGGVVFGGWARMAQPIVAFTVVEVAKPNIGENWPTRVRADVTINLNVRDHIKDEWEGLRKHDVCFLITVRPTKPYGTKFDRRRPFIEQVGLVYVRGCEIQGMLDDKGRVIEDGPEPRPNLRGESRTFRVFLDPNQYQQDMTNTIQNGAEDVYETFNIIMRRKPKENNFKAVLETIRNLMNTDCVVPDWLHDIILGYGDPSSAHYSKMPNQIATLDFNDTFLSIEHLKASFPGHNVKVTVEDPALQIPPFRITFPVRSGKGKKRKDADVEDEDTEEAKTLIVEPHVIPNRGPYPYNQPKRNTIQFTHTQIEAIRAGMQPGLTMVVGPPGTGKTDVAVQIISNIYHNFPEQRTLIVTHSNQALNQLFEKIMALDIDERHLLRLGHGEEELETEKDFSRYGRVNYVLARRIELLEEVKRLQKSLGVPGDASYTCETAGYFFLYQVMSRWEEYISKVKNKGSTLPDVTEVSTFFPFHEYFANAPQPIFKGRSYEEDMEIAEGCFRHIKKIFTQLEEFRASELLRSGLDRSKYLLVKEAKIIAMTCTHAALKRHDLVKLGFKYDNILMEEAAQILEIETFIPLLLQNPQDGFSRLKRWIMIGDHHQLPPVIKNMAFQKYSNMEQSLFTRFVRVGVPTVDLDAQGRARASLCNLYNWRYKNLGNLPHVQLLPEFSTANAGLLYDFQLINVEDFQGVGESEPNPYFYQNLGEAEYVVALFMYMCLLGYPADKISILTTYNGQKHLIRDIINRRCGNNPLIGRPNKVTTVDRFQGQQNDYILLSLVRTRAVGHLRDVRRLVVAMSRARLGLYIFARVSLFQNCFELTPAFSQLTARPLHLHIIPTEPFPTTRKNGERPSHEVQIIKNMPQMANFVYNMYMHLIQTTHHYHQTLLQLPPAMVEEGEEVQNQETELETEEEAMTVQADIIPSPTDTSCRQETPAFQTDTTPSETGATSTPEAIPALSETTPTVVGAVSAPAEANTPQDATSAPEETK
UniProt O00534: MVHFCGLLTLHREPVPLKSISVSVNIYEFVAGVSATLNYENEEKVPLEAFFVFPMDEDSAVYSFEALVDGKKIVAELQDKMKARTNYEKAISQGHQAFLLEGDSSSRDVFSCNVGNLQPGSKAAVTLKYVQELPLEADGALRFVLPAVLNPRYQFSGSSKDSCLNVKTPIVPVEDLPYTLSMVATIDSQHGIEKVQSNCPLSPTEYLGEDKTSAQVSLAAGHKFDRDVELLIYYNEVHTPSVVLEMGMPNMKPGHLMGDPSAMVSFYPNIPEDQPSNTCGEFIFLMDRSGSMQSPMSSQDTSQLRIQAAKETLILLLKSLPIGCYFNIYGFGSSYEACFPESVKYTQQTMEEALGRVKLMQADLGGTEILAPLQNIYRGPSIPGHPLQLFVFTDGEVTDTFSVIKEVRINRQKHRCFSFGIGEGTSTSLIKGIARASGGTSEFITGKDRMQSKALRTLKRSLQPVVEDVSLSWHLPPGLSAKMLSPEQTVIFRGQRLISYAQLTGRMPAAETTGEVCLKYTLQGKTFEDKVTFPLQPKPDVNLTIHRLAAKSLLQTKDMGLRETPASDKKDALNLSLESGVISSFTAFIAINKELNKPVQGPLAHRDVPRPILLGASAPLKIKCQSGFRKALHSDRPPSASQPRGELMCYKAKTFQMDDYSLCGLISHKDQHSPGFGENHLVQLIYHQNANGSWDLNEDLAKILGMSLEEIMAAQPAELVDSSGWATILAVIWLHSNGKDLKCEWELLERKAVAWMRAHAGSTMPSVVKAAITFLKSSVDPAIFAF
UniProt O14818: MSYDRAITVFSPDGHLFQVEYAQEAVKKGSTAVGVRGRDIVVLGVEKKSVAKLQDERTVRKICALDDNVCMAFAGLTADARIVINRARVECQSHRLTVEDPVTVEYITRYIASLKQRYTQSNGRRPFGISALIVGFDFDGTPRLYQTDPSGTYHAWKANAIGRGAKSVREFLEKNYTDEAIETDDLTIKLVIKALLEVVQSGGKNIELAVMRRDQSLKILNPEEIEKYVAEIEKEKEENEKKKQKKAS
UniProt O43252: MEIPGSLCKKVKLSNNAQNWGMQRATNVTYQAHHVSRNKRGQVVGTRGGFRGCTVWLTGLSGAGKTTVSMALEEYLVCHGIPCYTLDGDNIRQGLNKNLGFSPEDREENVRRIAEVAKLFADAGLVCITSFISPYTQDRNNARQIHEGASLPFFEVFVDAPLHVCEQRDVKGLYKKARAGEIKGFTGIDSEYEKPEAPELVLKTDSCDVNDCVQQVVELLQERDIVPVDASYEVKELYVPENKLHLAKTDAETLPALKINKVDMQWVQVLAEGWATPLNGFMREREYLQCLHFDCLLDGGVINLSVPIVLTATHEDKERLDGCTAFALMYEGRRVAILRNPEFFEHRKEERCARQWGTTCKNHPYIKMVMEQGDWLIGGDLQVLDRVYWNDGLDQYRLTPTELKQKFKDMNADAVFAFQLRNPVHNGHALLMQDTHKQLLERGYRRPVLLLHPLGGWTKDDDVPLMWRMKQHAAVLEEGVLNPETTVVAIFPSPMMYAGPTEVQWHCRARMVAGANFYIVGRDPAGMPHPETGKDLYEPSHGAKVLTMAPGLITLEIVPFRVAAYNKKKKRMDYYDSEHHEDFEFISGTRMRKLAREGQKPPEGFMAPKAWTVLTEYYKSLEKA
UniProt Q9UI14, whole entry: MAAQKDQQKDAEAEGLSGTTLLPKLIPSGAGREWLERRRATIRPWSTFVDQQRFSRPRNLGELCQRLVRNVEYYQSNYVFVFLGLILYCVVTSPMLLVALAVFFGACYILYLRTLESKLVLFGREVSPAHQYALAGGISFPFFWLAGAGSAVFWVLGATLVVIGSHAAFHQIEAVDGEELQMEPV
UniProt O43402: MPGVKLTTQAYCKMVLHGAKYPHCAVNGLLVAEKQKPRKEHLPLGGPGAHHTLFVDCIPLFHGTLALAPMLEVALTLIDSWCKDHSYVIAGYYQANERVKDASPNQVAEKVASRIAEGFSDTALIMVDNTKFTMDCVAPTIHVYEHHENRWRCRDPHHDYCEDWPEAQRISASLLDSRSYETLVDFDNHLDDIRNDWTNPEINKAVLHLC
UniProt O14949: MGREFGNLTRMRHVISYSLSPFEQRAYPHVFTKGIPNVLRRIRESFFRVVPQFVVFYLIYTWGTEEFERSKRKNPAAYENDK
UniProt O00165, whole entry: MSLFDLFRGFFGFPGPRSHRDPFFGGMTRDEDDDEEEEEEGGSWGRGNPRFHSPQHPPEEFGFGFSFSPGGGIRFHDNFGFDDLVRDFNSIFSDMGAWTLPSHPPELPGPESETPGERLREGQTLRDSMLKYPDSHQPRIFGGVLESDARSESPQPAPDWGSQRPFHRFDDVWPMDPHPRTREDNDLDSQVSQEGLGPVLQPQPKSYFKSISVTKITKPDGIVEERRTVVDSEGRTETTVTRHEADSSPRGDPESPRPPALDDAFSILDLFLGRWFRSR

Compound: Nc1ncnc2c1ncn2[C@@H]1O[C@H](COP(=O)(O)OP(=O)(O)OP(=O)(O)O)[C@@H](O)[C@H]1O [adenosine triphosphate]
Test: NP40-soluble protein abundance relative to vehicle (solubility fold change) (ratio); higher = more soluble protein in presence of ATP
Procedure, shortened: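 Jurkat crude lysate (Dounce-homogenised) was treated with eight concentrations from 0.1 to 10 mM for 10 min at room temperature, then 3 min at 37 °C. It was solubilised with 0.8% NP40 and benzonase (60 min, 4 °C) and ultracentrifuged, and the supernatant was TMT-labelled for LC-MS/MS. Intensities were vsn-normalised, and the value is the fold change against the NP40-processed vehicle per replicate, from three independent experiments.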

Target	NP40-soluble protein abundance (concentration: 1mM)	NP40-soluble protein abundance (concentration: 2mM)	NP40-soluble protein abundance (concentration: 4mM)	NP40-soluble protein abundance (concentration: 6mM)	NP40-soluble protein abundance (concentration: 8mM)	NP40-soluble protein abundance (concentration: 10mM)
UniProt O00592 and related entries	0.971 ± 0.13	0.9819 ± 0.0056	0.934 ± 0.067	0.968 ± 0.077	0.963 ± 0.026	0.878 ± 0.071
UniProt O43665 and related entries	0.915 ± 0.089	0.869 ± 0.09	0.893 ± 0.014	0.9374 ± 0.0081	0.919 ± 0.028	0.803 ± 0.13
AP3B1 (UniProt O00203)	0.96 ± 0.024	0.992 ± 0.042	0.947 ± 0.036	0.919 ± 0.023	0.933 ± 0.048	0.984 ± 0.067
UniProt O43292 and related entries	1.01 ± 0.19	1.07 ± 0.21	1.11 ± 0.18	1.07 ± 0.2	0.965 ± 0.033	1.03 ± 0.13
CBX4 (UniProt O00257)	1.02 ± 0.051	1.03 ± 0.078	1.06 ± 0.049	1.17 ± 0.2	1.16 ± 0.12	1.22 ± 0.08
UniProt O14617-5	0.963 ± 0.051	0.992 ± 0.014	0.992 ± 0.04	0.9637 ± 0.0074	0.973 ± 0.04	0.9949 ± 0.0085
UniProt O15015 and related entries	1.02 ± 0.045	1.044 ± 0.0076	1.03 ± 0.029	1.089 ± 0.0076	1.03 ± 0.047	1.05 ± 0.043
UniProt O15085 and related entries	0.904 ± 0.063	1.02 ± 0.062	1.04 ± 0.11	1.03 ± 0.03	0.914 ± 0.06	0.95 ± 0.047
PFDN6 (UniProt O15212)	0.855 ± 0.079	0.828 ± 0.065	0.803 ± 0.084	0.881 ± 0.085	0.795 ± 0.056	0.801 ± 0.067
BCAT2 (UniProt O15382)	1.02 ± 0.11	0.981 ± 0.088	0.986 ± 0.06	0.928 ± 0.15	1.02 ± 0.048	0.977 ± 0.067
UniProt O43427 and related entries	1.09 ± 0.14	1.05 ± 0.058	1.05 ± 0.061	0.962 ± 0.097	1.1 ± 0.048	1.06 ± 0.071
AQR (UniProt O60306)	1.07 ± 0.11	1.03 ± 0.071	1.03 ± 0.068	0.972 ± 0.083	1.08 ± 0.04	1.04 ± 0.07
VWA5A (UniProt O00534)	1.1 ± 0.13	1.05 ± 0.019	1.091 ± 0.0092	1.06 ± 0.059	1.02 ± 0.023	1.02 ± 0.096
PSMA7 (UniProt O14818)	0.948 ± 0.049	0.874 ± 0.0094	0.854 ± 0.022	0.881 ± 0.084	0.872 ± 0.057	0.866 ± 0.029
TOR1A (UniProt O14656)	1.01 ± 0.037	0.996 ± 0.04	0.964 ± 0.038	0.939 ± 0.088	0.93 ± 0.021	0.978 ± 0.029
DAPK3 (UniProt O43293)	1.09 ± 0.075	1.13 ± 0.081	1.14 ± 0.051	1.21 ± 0.07	1.161 ± 0.0084	1.23 ± 0.073
M0R0C6 and related entries (UniProt Q92945)	0.944 ± 0.062	0.947 ± 0.027	0.935 ± 0.038	0.976 ± 0.038	0.913 ± 0.013	0.908 ± 0.028
UniProt O00148	1.01 ± 0.028	1 ± 0.018	1.006 ± 0.0097	0.997 ± 0.07	1.05 ± 0.025	1.04 ± 0.041
UniProt O43303 and related entries	1.08 ± 0.073	1.03 ± 0.03	1.06 ± 0.025	1.1 ± 0.12	1.09 ± 0.079	1.08 ± 0.068
PAPSS1 (UniProt O43252)	0.989 ± 0.059	0.988 ± 0.043	0.959 ± 0.044	0.949 ± 0.054	0.987 ± 0.029	0.948 ± 0.04
M0QZ12 and related entries (UniProt Q96CP6)	1.02 ± 0.091	0.99 ± 0.14	1.01 ± 0.072	1.01 ± 0.17	0.966 ± 0.14	1.01 ± 0.06
UniProt O00267 and related entries	1.03 ± 0.025	1.03 ± 0.03	0.9963 ± 0.0094	0.977 ± 0.034	0.982 ± 0.012	0.994 ± 0.014
M0R3D4 and related entries (UniProt Q9UI14)	0.981 ± 0.048	1.01 ± 0.022	1.01 ± 0.014	0.948 ± 0.051	0.995 ± 0.058	0.984 ± 0.095
UniProt O43402	1.035 ± 0.0073	1.006 ± 0.0079	1.02 ± 0.061	0.991 ± 0.014	0.979 ± 0.041	0.96 ± 0.027
UQCRQ (UniProt O14949)	0.958 ± 0.083	0.903 ± 0.04	0.882 ± 0.079	0.829 ± 0.066	0.938 ± 0.074	0.823 ± 0.16
UniProt O00165 and related entries	1.07 ± 0.04	1.04 ± 0.051	1.06 ± 0.074	1.07 ± 0.086	1.07 ± 0.034	1.07 ± 0.059
UniProt O60313-2|E5KLJ5	1.01 ± 0.014	0.9706 ± 0.0012	0.96 ± 0.011	0.958 ± 0.026	0.9704 ± 0.0089	0.946 ± 0.02
EEF2K (UniProt O00418)	0.9871 ± 0.0015	0.964 ± 0.038	0.935 ± 0.0095	0.972 ± 0.027	0.959 ± 0.014	0.953 ± 0.042
KRIT1 (UniProt O00522)	1.05 ± 0.06	1.04 ± 0.022	1.09 ± 0.1	1.09 ± 0.028	1.09 ± 0.077	1.11 ± 0.13
UniProt O43670-2|X6R4W8	1.1 ± 0.036	1.13 ± 0.034	1.12 ± 0.037	1.19 ± 0.08	1.1648 ± 0.0011	1.177 ± 0.005

Reformatted: entries from further up.
Target,NP40-soluble protein abundance (concentration: 1mM),NP40-soluble protein abundance (concentration: 2mM),NP40-soluble protein abundance (concentration: 4mM),NP40-soluble protein abundance (concentration: 6mM),NP40-soluble protein abundance (concentration: 8mM),NP40-soluble protein abundance (concentration: 10mM)
UniProt O15085 and related entries,0.904 ± 0.063,1.02 ± 0.062,1.04 ± 0.11,1.03 ± 0.03,0.914 ± 0.06,0.95 ± 0.047
PFDN6 (UniProt O15212),0.855 ± 0.079,0.828 ± 0.065,0.803 ± 0.084,0.881 ± 0.085,0.795 ± 0.056,0.801 ± 0.067
BCAT2 (UniProt O15382),1.02 ± 0.11,0.981 ± 0.088,0.986 ± 0.06,0.928 ± 0.15,1.02 ± 0.048,0.977 ± 0.067
UniProt O43427 and related entries,1.09 ± 0.14,1.05 ± 0.058,1.05 ± 0.061,0.962 ± 0.097,1.1 ± 0.048,1.06 ± 0.071
AQR (UniProt O60306),1.07 ± 0.11,1.03 ± 0.071,1.03 ± 0.068,0.972 ± 0.083,1.08 ± 0.04,1.04 ± 0.07
